Source: patent US20210113484A1 (NATIONAL UNIVERSITY OF SINGAPORE, published 2021)
These are yes or no findings as the source states them, for the method shown. Some results given as binding are weak or reduced against the parent protein; the word gives no strength. Where a sequence is shown, tags or fusion partners need not be part of it.

Biological target: AfFtn with truncated C-terminus and E65K, E128K, E131K, D138A, net positive interior [AfFtnΔC(+)] (Archaeoglobus fulgidus)
Assay: His-tag pull-down followed by SEC

B1: tES-rLuc (His-tagged AfFtn subunit with truncated C-terminus fused to Renilla luciferase) (other)
chain: MASISEKMVEALNRQINAEIYSAYLYLSMASYFDSIGLKGFSNWMRVQWQEELMHAMKMFDFVSERGGRVKLYAVEEPPSEWDSPLAAFEHVYEHEVNVTKRIHELVEMAMQEKDFATYNFLQWYVAEQVEEEASALDIVEKLRLIGEDKRALLFLDKELSLRQTS
notes: also called tES-rLuc fusion subunit; not shown: N-terminal His-tag from pBAD/HisB; Renilla luciferase (rLuc), a 36 kDa protein from sea pansy, Renilla reniformis
- binding: binds
